Measurements reported in PubChem BioAssay AID1159584 (Peter MacCallum Cancer Centre, 2016).
Here is a random part of about 18,000 reagents. The numbers tell different reagents against one gene apart. Not all columns of the deposit are shown. The record does not give: the amount of reagent, the time to read-out.

Assay: 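Genes that CDH1-null MCF10A cells selectively depend on to survive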 (primary screen)
Cell system: human MCF10A breast epithelial cells, parental and CDH1-null
Reagents: siRNA against human genes
Read-out: 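ATP luminescence (CellTiter-Glo) viability per line relative to mean mock wells over all plates, and the ratio of CDH1-null to parental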
Reading the numbers: CDH1-null / parental viability ratio: higher = CDH1-null cells survive relatively better than parental

For CYBRD1, what does the deposit list?
CDH1-null / parental viability ratio: 0.96

For BACH2, what does the deposit list?
CDH1-null / parental viability ratio: 0.95

With REG4, what does the deposit list?
CDH1-null / parental viability ratio: 0.94

What did the screen give for KLC3?
CDH1-null / parental viability ratio: 1.17

What did the screen give for DOK6?
CDH1-null / parental viability ratio: 1.15

With HAVCR2, how do the results read?
CDH1-null / parental viability ratio: 0.94

Which result is listed for AGAP4 #1?
CDH1-null / parental viability ratio: 0.94

What is on record for AGAP4 #2?
CDH1-null / parental viability ratio: 1.07

For SYNPO2, what does the deposit list?
CDH1-null / parental viability ratio: 0.91

How did the screen score SGCA?
CDH1-null / parental viability ratio: 0.8

What is on record for HPCA?
CDH1-null / parental viability ratio: 1.11

What did the screen give for MAGEC1?
CDH1-null / parental viability ratio: 1.17

With RSPH4A, what was measured?
CDH1-null / parental viability ratio: 0.82

With OR5C1, what does the deposit list?
CDH1-null / parental viability ratio: 1.03

With RNF34, what was measured?
CDH1-null / parental viability ratio: 0.88

With UBA52, what was measured?
CDH1-null / parental viability ratio: 1.82

For SGCZ, how do the results read?
CDH1-null / parental viability ratio: 0.9

For RIOX1, what was measured?
CDH1-null / parental viability ratio: 1.1

How did the screen score AASS?
CDH1-null / parental viability ratio: 0.66

With MND1, what does the deposit list?
CDH1-null / parental viability ratio: 0.96

Which result is listed for ELOVL2?
CDH1-null / parental viability ratio: 1.11

What is on record for DNASE2B?
CDH1-null / parental viability ratio: 0.95

What is on record for PDCD1LG2?
CDH1-null / parental viability ratio: 0.96

What is on record for LRRC71?
CDH1-null / parental viability ratio: 1.19

With TOM1L1, how do the results read?
CDH1-null / parental viability ratio: 1.09

With SULT1B1, what does the deposit list?
CDH1-null / parental viability ratio: 1.21

For NSUN6, how do the results read?
CDH1-null / parental viability ratio: 0.79

Which result is listed for SLITRK1?
CDH1-null / parental viability ratio: 1.11

How did the screen score ESCO1?
CDH1-null / parental viability ratio: 1.18

How did the screen score CREBZF?
CDH1-null / parental viability ratio: 0.96

With EFEMP2, what does the deposit list?
CDH1-null / parental viability ratio: 0.98

How did the screen score ZNF254?
CDH1-null / parental viability ratio: 0.78

What did the screen give for BCL2L10?
CDH1-null / parental viability ratio: 0.97

For F13A1, how do the results read?
CDH1-null / parental viability ratio: 1.01

Which result is listed for LYZL4?
CDH1-null / parental viability ratio: 1.34

Entries above whose gene name begins with D or d (2):
DOK6 — CDH1-null / parental viability ratio: 1.15
DNASE2B — CDH1-null / parental viability ratio: 0.95
